Percent effect of library compounds

The chains behind the UniProt entries cited, without tags or fusion partners. Residues count along the entry.
UniProt I6X8D2, whole entry: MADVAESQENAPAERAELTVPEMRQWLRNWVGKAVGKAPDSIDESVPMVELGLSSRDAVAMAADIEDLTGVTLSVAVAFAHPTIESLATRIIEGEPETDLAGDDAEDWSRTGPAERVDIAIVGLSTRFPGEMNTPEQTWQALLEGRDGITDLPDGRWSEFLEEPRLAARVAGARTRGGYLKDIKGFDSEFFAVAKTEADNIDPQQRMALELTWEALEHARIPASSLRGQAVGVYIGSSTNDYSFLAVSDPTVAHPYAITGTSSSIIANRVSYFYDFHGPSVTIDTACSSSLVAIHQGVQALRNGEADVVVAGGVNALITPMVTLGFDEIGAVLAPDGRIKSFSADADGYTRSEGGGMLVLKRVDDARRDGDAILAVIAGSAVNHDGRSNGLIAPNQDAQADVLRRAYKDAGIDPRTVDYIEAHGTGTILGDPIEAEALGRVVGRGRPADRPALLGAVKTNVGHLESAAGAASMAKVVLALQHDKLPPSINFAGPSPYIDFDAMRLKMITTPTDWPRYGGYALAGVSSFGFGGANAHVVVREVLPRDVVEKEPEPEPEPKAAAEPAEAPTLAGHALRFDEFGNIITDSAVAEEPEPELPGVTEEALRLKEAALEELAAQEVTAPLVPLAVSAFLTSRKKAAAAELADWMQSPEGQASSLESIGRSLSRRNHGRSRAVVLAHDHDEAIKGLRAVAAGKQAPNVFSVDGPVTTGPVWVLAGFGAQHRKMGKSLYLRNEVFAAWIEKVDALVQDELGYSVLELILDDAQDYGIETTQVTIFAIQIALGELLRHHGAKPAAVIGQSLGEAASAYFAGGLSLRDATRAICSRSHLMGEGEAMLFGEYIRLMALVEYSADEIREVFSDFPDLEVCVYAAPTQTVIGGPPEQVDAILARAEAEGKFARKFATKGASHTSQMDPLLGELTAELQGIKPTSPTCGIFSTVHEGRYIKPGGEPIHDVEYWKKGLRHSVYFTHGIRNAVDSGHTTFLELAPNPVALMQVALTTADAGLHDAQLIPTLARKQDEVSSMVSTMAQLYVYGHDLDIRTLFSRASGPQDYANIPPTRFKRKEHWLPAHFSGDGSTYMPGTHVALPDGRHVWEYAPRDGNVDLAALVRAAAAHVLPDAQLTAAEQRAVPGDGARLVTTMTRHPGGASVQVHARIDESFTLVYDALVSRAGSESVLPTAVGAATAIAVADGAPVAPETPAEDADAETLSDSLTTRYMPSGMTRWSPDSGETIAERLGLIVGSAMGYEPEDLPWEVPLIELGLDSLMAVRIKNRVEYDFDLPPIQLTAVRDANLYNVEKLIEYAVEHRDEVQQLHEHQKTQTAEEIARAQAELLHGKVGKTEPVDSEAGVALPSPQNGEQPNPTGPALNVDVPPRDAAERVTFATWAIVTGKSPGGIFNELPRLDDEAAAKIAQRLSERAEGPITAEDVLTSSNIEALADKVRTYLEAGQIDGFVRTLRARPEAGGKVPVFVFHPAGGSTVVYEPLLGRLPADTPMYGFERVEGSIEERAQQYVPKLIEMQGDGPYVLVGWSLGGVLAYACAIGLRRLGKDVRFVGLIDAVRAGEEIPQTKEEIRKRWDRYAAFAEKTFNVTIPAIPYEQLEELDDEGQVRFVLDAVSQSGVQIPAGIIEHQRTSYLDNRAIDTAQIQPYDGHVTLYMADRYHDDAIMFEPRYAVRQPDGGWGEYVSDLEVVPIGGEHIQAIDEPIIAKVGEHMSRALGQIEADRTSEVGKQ
UniProt P9WNZ1, whole entry: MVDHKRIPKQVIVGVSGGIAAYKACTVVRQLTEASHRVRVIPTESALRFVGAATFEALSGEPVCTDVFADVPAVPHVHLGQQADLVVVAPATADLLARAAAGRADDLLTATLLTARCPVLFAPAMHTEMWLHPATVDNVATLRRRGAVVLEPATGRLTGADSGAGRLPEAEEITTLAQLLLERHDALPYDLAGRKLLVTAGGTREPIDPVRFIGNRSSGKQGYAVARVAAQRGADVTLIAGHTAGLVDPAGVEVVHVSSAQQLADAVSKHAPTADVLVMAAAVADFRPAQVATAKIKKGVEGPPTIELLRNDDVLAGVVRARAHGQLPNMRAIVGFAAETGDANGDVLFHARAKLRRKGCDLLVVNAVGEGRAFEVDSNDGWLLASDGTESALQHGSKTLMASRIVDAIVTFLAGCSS
UniProt Q8IDJ8, 1-583: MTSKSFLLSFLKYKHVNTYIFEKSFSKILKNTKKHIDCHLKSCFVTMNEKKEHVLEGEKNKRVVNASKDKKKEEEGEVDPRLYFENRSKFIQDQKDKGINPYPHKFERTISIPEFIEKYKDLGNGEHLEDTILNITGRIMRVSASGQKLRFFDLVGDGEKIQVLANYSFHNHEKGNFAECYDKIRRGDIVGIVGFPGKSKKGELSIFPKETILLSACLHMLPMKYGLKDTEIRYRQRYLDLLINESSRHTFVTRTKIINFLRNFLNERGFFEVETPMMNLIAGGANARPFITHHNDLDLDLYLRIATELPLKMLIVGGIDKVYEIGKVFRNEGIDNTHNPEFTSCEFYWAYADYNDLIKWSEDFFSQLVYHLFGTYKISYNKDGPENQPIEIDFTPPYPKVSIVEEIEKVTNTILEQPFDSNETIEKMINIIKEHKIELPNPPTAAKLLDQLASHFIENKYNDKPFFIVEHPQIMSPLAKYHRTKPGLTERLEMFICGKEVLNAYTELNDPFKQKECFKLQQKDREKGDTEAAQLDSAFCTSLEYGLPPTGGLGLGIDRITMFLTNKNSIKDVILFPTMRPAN
UniProt Q4DA54, 1-478: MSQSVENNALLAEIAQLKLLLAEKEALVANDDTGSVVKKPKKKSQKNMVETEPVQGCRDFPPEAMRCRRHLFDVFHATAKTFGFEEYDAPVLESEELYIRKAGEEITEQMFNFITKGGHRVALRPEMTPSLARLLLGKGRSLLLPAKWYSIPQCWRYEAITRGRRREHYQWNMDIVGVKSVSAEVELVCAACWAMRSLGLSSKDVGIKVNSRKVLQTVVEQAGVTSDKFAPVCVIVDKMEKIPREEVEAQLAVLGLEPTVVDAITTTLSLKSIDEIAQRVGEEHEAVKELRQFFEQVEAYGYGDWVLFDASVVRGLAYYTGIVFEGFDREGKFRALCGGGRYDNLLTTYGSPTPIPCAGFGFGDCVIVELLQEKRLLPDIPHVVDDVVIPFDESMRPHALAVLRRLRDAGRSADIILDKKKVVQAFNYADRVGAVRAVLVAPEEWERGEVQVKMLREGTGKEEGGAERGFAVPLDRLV

Results are given as percent effect. How 0% and 100% were set is not recorded. Most values in the screen are low, and negative values occur. Compounds were drawn at random from those tested, without regard to their results. A dash means the value is not listed here; it may have been measured.

Pks13 thioesterase: 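Polyketide synthase Pks13, Mycobacterium tuberculosis (UniProt I6X8D2). Enzyme assay of the thioesterase domain of polyketide synthase 13; the read-out is not stated. Compounds at 30 µM. Higher reads as stronger inhibition (inferred from which compounds were picked for retests). Of about 67,000 compounds tested this way, about 300 (0.46%) reached 50% or more in at least one test.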
CoaBC: 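Coenzyme A biosynthesis protein CoaBC, Mycobacterium tuberculosis (UniProt P9WNZ1). Enzyme assay of CoaBC with a phosphate dye (Biomol Green) read at 650 nm. Concentration: 30 µM. Higher reads as stronger inhibition, judged from the few compounds that gave an IC50. Most strong results did not repeat in a second test. Size under these conditions: about 67,000 compounds, about 40 of them at 50% or above in at least one test.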
PfKRS1: 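Lysine-tRNA ligase, Plasmodium falciparum 3D7 (UniProt Q8IDJ8). Enzyme assay of the cytosolic lysyl-tRNA synthetase in 384-well plates, read by luminescence. Tested at 30 µM. Higher reads as stronger inhibition, judged from the few compounds that gave an IC50. Size under these conditions: about 69,000 compounds, about 49 of them at 50% or above in at least one test.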
TcHisRS: 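Enzyme assay of histidyl-tRNA synthetase; the read-out is not stated. Target: Histidine-tRNA ligase, Trypanosoma cruzi CL Brener (UniProt Q4DA54). Tested at 30 µM. Direction is inferred from retests: higher values go with stronger inhibition. Size under these conditions: about 69,000 compounds, about 31 of them at 50% or above in at least one test.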

| Compound | Pks13 thioesterase | CoaBC | PfKRS1 | TcHisRS |
|---|---|---|---|---|
| `CC(OCC1CC1)C(=O)NCc1cccc(CN2CCN(C)CC2)c1` (stereo not shown) | -23.96% | -6.375% | -5.139% | 5.263% |
| `COc1ccc(OC)c(C(O)CN2CCN(C3CCCC3)CC2)c1` (stereo not shown) | -24.83% | 6.291% | 3.56% | 3.191% |
| `Cc1cc(N2CCC(n3cc(CN4CCNCC4)nn3)CC2)ccn1` | -20.05% | 5.528% | -4.563% | 13.1% |
| `Oc1cccc(CNCCC2CCCO2)c1` (stereo not shown) | -52.86% | -2.174% | 1.345% | 1.604% |
| `COC1COC2(CCN(C(=O)c3cscn3)CC2)C1` (stereo not shown) | -6.951% | -35.86% | 3.257% | -125.3% |
| `COCCNC(=O)Nc1cccc(COCCOC(C)C)c1` | 0.3947% | 4.994% | 2.782% | 8.929% |
| `CCc1c(C(=O)O)nnn1-c1cc(C)ccc1C` | -12.53% | 3.281% | -0.7019% | 7.921% |
| `CCN1CC2(CC1=O)CN(C(=O)NC(C)C)CCN(S(C)(=O)=O)C2` (stereo not shown) | -1.432% | 1.576% | 3.353% | 5.028% |
| `CCOCc1ncn2c1CN(C(=O)Nc1ccc(CC)cc1)CC2` | -46.55% | 0.9223% | -0.7588% | 6% |
| `COc1ccc2c(c1)OCC(CNC(=O)CCc1c(C)n[nH]c1C)C2` (stereo not shown) | -0.4149% | -4.512% | 1.51% | 5.422% |
| `N#Cc1ccc(NC(=O)C2CSCN2)cc1` (stereo not shown) | -33.32% | -2.892% | -1.144% | 9.901% |
| `CC1CN(Cc2ccc(C#N)cc2F)CCN1Cc1nccn1C` (stereo not shown) | -3.1% | 5.355% | -0.006539% | 3.207% |
| `CNC(=O)c1cn[nH]c1C1(C)CCCN(CC2(O)CCCCC2)C1` (stereo not shown) | 10.16% | -1.703% | 2.005% | 3.731% |
| `Cc1nc(N2CCCC2)nc(C)c1NC(=O)c1ccco1` | -24.01% | -1.48% | -6.417% | 1.031% |
| `COCC1COCCC12CCN(C(=O)COc1ccccc1C)CC2` (stereo not shown) | -13.76% | 4.511% | -6.72% | 2.439% |
| `Cc1cc(C2CCCN(CCc3ccccn3)C2)n[nH]1` (stereo not shown) | -46.03% | -2.828% | 4.018% | 0% |
| `COCC1CC2(CCN(C(=O)c3cccn3C)CC2)CN1C(C)C` (stereo not shown) | -3.028% | -17.18% | 4.42% | 1.604% |
| `N#CC1(C(=O)N2CCOC(c3ccc(F)cc3)C2)CCCC1` (stereo not shown) | -12.61% | -18.49% | 3.747% | 6.736% |
| `Cc1nc(CNC(=O)C(C)Oc2ccccc2F)no1` (stereo not shown) | 10.85% | -1.48% | 1.557% | 6.061% |
| `O=C1CC[C@H]2[C@H](CCN2C(=O)C2CCOCC2)N1Cc1ccncc1` | -13.08% | 0.6729% | 4.98% | -0.5464% |
| `CCc1csc(C2CCCN(C(=O)COc3cc(C)on3)C2)n1` (stereo not shown) | - | 2.089% | -0.3152% | 2.825% |
| `CC(=O)Nc1nc(C(=O)N2CCC(Nc3cccnn3)CC2)cs1` | -0.6678% | 12.42% | -0.146% | -3.333% |
| `Cc1cnn(CC(C)NCc2csc(-c3ccsc3)n2)c1` (stereo not shown) | -24.41% | -3.916% | -0.8952% | 3.383% |
| `Cc1cccc(S(=O)(=O)N2CSCC2C(=O)NCC2CC2)c1` (stereo not shown) | 0.7551% | 1.899% | 9.873% | 4.878% |
| `CN(C)C(=O)N1CCN(Cc2cnn(C)c2)CC2(CNC(=O)C2)C1` (stereo not shown) | -18.6% | 6.17% | 4.343% | 8.287% |
| `O=C(Cc1cnn(-c2ccccc2)n1)NC1CCOCC1` | -15.97% | 9.046% | -0.4677% | 6.557% |
| `Cn1cccc1C(=O)N1CCC2(CC1)CN(c1ccccc1)C(=O)CO2` | 0.4136% | -4.75% | 0.4478% | -61.76% |
| `Cc1ccc(OC[C@@H]2CNC[C@H](C(=O)NCC3CCCO3)C2)cn1` (stereo partly shown) | -24% | 0.6048% | -0.2521% | 1.087% |
| `COCCOc1ccccc1CNCC1COC2(CCCC2)O1` (stereo not shown) | -11.34% | -0.4831% | -1.767% | 9.677% |
| `CS(=O)(=O)c1cnc(N2CCCC2)nc1C1CCN(C(=O)C2CC2)CC1` | -8.616% | 3.881% | 0.1689% | 6.571% |
| `CCn1cnnc1C1CCN(C(=O)c2cc(C)c(C)s2)CC1` | -29.75% | 5.357% | -1.173% | 2.924% |
| `COCCNCc1cc2cc(C)cc(C)c2[nH]c1=O` | 7.616% | -6.012% | 2.861% | 4.651% |
| `CCc1nccn1CCC(=O)N1CCCC1c1ccc(F)cc1` (stereo not shown) | - | -9.636% | -0.09056% | 4.545% |
| `Cc1ccc2c(c1)SCC(=O)N2Cc1noc(C2CCCO2)n1` (stereo not shown) | -5.852% | -6.914% | 9.803% | 2.488% |
| `Cc1cccc(-n2nc(CC(C)C)nc2CCCC(N)=O)c1` | -8.651% | -0.7371% | 5.068% | 4.938% |
| `Cc1cccnc1CN1CCN(C(=O)c2cnn(C(C)C)c2)CC1` | -27.8% | -1.58% | -1.676% | 1.98% |
| `Cc1n[nH]c(=O)c2c(NC(=O)CN3CCOCC3)oc(C)c12` | 9.122% | 4.842% | 7.266% | 2.5% |
| `CN(C)Cc1ccccc1Cn1cncc1-c1cnn(C)c1` | 4.721% | -0.1227% | 0.8011% | 3.876% |
| `CC1(C)OC(=O)N(CCOc2ccc(F)cc2)C1=O` | -16.31% | 4.642% | -0.7211% | 0.4975% |
| `O=C(NCC1CC[C@@H]2[C@@H]1OCCN2Cc1cccs1)c1ccco1` (stereo partly shown) | -14.93% | 5.833% | 2.728% | 4.813% |
| `Cc1oc2nc[nH]c(=O)c2c1C(=O)N1CCCC(n2cccn2)C1` (stereo not shown) | -44.79% | - | 2.157% | 12.99% |
| `CCc1nc(CNc2cc(Cl)ccc2OCC2CCCO2)no1` (stereo not shown) | -23.85% | 1.603% | 3.817% | 3.941% |
| `CC(C)c1ccc(S(=O)(=O)N2CSCC2C(=O)NCC(F)(F)F)cc1` (stereo not shown) | -646.8% | 2.163% | 1.81% | 4.507% |
| `Cn1cc(CN2CCn3cc(CNC(=O)c4cccn4C)nc3C2)cn1` | -19.93% | -4.404% | 3.849% | 8.197% |
| `CC(C)(C)NC(=O)CNC(=O)c1cccnc1Oc1cccnc1` | -15.51% | -0.978% | 2.579% | 6.186% |
| `CC(C)NC(=O)COc1cccc(-c2nc(C(C)C)no2)c1` | -32.02% | 1.449% | 1.856% | -2% |
| `Cc1ccc(N2CCC3(CCN(C(=O)c4ccoc4)CC3)CC2)nn1` | -9.388% | 9.554% | 2.249% | 4% |

For reference, 6 entries once more:

N#CC1(C(=O)N2CCOC(c3ccc(F)cc3)C2)CCCC1 (stereo not shown) read Pks13 thioesterase: -12.61%; CoaBC: -18.49%; PfKRS1: 3.747%; TcHisRS: 6.736%.
Oc1cccc(CNCCC2CCCO2)c1 (stereo not shown) read Pks13 thioesterase: -52.86%; CoaBC: -2.174%; PfKRS1: 1.345%; TcHisRS: 1.604%.
Cc1cc(N2CCC(n3cc(CN4CCNCC4)nn3)CC2)ccn1 read Pks13 thioesterase: -20.05%; CoaBC: 5.528%; PfKRS1: -4.563%; TcHisRS: 13.1%.
CN(C)C(=O)N1CCN(Cc2cnn(C)c2)CC2(CNC(=O)C2)C1 (stereo not shown) read Pks13 thioesterase: -18.6%; CoaBC: 6.17%; PfKRS1: 4.343%; TcHisRS: 8.287%.
Cn1cc(CN2CCn3cc(CNC(=O)c4cccn4C)nc3C2)cn1 read Pks13 thioesterase: -19.93%; CoaBC: -4.404%; PfKRS1: 3.849%; TcHisRS: 8.197%.
CCOCc1ncn2c1CN(C(=O)Nc1ccc(CC)cc1)CC2 read Pks13 thioesterase: -46.55%; CoaBC: 0.9223%; PfKRS1: -0.7588%; TcHisRS: 6%.

Source: ChEMBL document CHEMBL3988442, “University of Dundee, Small-Polar-MMV Screening Library” (2021).